Data published in paper PMC6242852.
These are yes or no findings as the source states them, for the method shown. Binding seen in cells or lysates may run through a third protein. Some results given as binding are weak or reduced against the parent protein; the word gives no strength.

The chains behind the UniProt entries cited, without tags or fusion partners.
UniProt Q60974: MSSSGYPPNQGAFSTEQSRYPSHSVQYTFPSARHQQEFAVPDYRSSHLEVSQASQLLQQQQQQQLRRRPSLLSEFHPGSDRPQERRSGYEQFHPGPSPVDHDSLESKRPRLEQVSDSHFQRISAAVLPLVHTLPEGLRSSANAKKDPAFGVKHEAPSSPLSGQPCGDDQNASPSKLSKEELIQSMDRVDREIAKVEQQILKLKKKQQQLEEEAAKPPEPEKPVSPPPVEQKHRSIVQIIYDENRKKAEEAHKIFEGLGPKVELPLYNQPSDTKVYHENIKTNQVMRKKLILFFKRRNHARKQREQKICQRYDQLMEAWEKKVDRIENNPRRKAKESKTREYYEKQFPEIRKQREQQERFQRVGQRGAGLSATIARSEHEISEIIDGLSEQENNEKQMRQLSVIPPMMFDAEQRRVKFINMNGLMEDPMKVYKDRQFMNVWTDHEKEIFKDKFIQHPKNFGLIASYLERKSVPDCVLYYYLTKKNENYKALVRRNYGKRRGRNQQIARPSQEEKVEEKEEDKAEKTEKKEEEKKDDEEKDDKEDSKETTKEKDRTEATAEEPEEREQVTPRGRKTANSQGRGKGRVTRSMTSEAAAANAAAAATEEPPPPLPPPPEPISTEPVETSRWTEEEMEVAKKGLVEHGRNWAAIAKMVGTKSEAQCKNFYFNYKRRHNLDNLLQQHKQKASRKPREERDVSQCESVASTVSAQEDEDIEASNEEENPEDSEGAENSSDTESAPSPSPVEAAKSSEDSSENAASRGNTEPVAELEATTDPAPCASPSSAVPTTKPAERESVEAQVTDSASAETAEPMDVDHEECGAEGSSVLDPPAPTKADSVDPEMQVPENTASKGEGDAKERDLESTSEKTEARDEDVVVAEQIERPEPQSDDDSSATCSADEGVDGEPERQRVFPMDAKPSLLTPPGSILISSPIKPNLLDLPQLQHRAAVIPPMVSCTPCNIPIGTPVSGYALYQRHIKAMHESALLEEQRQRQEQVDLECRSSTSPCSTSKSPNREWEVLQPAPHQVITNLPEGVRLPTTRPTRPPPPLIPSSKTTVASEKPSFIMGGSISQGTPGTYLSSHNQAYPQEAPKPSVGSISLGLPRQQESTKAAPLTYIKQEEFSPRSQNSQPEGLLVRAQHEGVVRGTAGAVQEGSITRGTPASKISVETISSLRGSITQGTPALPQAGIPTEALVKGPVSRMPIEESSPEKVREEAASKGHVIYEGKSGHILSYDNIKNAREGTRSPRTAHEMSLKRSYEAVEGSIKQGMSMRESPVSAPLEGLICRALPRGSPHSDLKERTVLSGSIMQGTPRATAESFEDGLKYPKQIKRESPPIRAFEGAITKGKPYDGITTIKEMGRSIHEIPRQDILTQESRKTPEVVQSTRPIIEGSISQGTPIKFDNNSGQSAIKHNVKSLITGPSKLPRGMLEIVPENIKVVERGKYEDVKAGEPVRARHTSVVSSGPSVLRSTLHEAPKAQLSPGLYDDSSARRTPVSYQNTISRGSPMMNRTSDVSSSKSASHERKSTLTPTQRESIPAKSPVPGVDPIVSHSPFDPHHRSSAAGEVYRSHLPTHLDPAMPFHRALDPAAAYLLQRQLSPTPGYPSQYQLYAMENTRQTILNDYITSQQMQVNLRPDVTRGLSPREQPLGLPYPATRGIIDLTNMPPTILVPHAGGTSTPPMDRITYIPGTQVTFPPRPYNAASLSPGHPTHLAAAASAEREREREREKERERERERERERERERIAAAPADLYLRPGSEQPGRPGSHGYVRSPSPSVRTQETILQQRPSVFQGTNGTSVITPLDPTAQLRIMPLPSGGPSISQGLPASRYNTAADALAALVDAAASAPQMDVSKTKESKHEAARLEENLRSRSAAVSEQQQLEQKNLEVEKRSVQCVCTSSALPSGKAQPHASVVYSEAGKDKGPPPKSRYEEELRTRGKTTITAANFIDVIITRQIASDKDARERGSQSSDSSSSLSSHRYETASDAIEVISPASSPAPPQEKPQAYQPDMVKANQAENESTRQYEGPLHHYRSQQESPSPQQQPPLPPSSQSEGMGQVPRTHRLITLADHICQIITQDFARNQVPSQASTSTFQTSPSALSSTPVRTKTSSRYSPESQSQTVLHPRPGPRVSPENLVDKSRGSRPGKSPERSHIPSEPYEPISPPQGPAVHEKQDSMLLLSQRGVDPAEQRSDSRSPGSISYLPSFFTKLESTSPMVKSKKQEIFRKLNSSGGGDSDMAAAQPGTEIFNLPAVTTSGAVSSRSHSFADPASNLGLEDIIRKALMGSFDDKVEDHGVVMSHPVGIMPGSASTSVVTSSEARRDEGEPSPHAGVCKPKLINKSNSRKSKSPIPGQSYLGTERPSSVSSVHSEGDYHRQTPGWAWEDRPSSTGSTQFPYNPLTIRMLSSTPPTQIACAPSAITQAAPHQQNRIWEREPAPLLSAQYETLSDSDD
UniProt Q9R1E0: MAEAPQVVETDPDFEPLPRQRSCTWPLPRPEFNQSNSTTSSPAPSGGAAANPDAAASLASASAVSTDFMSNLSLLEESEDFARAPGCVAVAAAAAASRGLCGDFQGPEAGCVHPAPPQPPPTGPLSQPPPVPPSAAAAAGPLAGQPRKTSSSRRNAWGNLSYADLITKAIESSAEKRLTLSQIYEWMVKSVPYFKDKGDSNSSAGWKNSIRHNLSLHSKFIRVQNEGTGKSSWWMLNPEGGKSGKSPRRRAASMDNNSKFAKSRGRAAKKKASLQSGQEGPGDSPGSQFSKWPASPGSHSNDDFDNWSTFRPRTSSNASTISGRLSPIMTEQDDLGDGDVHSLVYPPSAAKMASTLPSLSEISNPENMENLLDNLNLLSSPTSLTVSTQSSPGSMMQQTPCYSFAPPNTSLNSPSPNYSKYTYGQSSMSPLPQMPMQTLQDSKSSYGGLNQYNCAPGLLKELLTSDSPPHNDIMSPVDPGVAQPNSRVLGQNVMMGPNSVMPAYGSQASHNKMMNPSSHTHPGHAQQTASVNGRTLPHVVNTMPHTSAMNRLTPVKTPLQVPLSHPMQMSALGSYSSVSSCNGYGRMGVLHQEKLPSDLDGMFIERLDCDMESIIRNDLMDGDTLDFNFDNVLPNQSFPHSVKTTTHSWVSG

How the values were obtained:
Assay in all cases: co-IP; endogenous proteins in lysates of Raw 264.7 cells and BMDM, without IL-4 stimulation; lysate incubated with FoxO1, HDAC3 or NCoR1 antibody 3 h at 4 °C, protein G-sepharose 1 h; CO-IP buffer 50 mM HEPES pH 8.0, 50 mM NaCl, 0.25% sodium deoxycholate, 1% NP-40; western blot
[1] = molecular target: NCoR1 (mouse (endogenous in RAW264.7 cells and BMDM)) (UniProt Q60974)
[2] = molecular target: T1, HDAC3 (mouse (endogenous in RAW264.7 cells and BMDM)) (UniProt O88895)
T1 sequence: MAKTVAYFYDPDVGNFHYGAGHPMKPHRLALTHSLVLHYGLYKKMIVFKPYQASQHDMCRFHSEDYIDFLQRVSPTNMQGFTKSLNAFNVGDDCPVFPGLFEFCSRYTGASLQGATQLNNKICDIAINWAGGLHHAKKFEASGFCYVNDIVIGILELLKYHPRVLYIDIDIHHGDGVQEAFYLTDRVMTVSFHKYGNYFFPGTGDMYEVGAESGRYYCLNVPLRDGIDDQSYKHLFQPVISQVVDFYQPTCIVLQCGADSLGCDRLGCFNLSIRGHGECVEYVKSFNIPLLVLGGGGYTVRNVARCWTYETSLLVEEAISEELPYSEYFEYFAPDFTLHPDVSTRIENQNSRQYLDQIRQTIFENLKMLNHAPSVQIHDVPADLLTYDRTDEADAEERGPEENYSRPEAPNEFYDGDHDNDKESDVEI

[3] = molecular target: FoxO1 (mouse (endogenous in RAW264.7 cells and BMDM)) (UniProt Q9R1E0)

binding [1] | binding [2] | binding [3] | Substance
binds | binds | – | FoxO1 (from UniProt Q9R1E0 1-652)
– | binds | binds | NCoR1 (from UniProt Q60974 1-2453)
